The subject of this assay is Rat vascular smooth muscle cells. Description: cells. The class given is cell-based. Conditions: read-out: ID50, inhibition of DNA synthesis. The protocol: DNA synthesis assessed by the uptake of [3H]thymidine: Cells are grown in either 48 or 96 wells plates (Costar, Cambridge, Mass.) at 10^4 and 0.8 10^3 cells per well, respectively, and grown in Dubelcco's modified Eagle's medium (DME, Gibco, Grand Island, N.Y.) supplemented with 10% heat-inactivated calf serum; they are kept at 37° C. in 5% CO2. When they reach confluence, usually between 3 and 4 days, the medium is replaced with DME 0.5% serum to make them quiescent, and mitogenesis assays are performed 24 hours later.
Quiescent cells are exposed to a mitogenic stimulus, such as 10% serum, PDGF (Sigma Co. St. Louis, Mo.), bFGF (Upstate Biotechnologies, Lake Placid, N.Y.), or other appropriate mitogen according to the cell line, and 3 hours 1 later μCi/ml of [3H]thymidine (Dupont, Billerica, Mass.) is added to the wells, and the cells maintained at 37° C./5% CO2 for additional 21 hours. Then the cells are washed 3 times with DME medium and the acid-precipitable radioactivity is extracted with cold 10% TCA (Sigma, Co). After neutralization with 0.3N NaOH (Sigma Co.), aliquots are counted in a Packard Tri-Carb Scintillation counter (Packard Instrument, Downer's Grove, Ill.). […]

`Clc1ccccc1C(c1ccccc1)(c1ccccc1)n1ccnc1` [CLT, clotrimazole]: the IC50 was about 1500 nM.
